Among the data in patent US20150158934A1 are binding values, retold here.

Assay [1] concerns the target HIV-1 Bal envelope protein (Env) on infected human monocyte-derived macrophages (Human immunodeficiency virus 1, strain Bal). Put plainly: immunofluorescence on HIV-1 Bal infected human monocyte-derived macrophages; myc-tagged J3 detected with anti-myc 4A6 and Alexa 594 goat anti-mouse, with anti-p17 4C9 as HIV marker.
For assay [2] the target is unchanged. Put plainly: immuno-gold electron microscopy on HIV-1 Bal infected human monocyte-derived macrophages; myc-tagged J3, anti-myc 9E10, rabbit anti-mouse, protein A gold [D00016 FIG. 10B; D00017 FIG. 10C].

No constants are given. Whether binding was seen depends on the method and setting. Binding calls can cover weak binding; strength is not graded here.

B1: L8Cj3 (VHH)
VHH: EVQLVESGGGLVQAGGFLRLSCELRGSIFNQYAMAWFRQAPGKEREFVAGMGAVPHYGEFVKGRFTISRDNAKSTVYLQMSSLKPEDTAIYFCARSKSTYISYNSNGYDYWGRGTQVTVSS
On to B1, for which the binding entry in assay [1] and in assay [2] was “binds” throughout.
